The numbers were not newly measured in paper PMC10341634, “Vasodilating Effects of Antispasmodic Agents and Their Cytotoxicity in Vascular Smooth Muscle Cells and Endothelial Cells—Potential Application in Microsurgery” (International Journal of Molecular Sciences, 2023), which cites them from elsewhere.

For this data set the following is noted: cited from earlier work.

Consider `CCN(CC)CC(=O)Nc1c(C)cccc1C` [Lidocaine, lidocaine], for which the “demonstrated toxicity level (blood concentration)” value was 5 to 10 µg/mL.
